Assay results published in article PMC8954417.
Results are given in words; binding and its absence hold for the method and conditions named.

Molecular target: Ixodes scapularis Salp15 fragment 23-135 (refolded, folded form) (Ixodes scapularis) (UniProt Q95WZ4)
Experiment: SEC-MALS; Superdex 75 10/300 GL, 25 °C, 20 mM Tris-HCl pH 7.5, 300 mM NaCl, 0.5 mM TCEP, 0.03% NaN3; 100 µL of Salp15 at 1.9 g/L injected, 0.5 mL/min; both purified

Substance: Ixodes scapularis Salp15 fragment 23-135 (refolded, folded form) (from UniProt Q95WZ4 23-135)
- binding: no binding (tested: 1.9 g/L)
